Results reported in PubChem BioAssay AID1117319 (Southern Research Institute, 2015).
Among all 260,000 compounds or so, about 1,500 (0.58%) were called active. The inconclusive results got no clear call from the source; some entries with a clear call stand among them for comparison.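 The calls were made as follows: active = inhibition above a set limit at one or more doses, reproduced on every date tested; inconclusive = results disagree between test dates, or hit never tested in dose response; inactive = the rest.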

Sequences of proteins named here, by UniProt entry; tags and fusion partners are left off. A change or cut given only in a name is not applied to a line headed by its entry.
UniProt P69720: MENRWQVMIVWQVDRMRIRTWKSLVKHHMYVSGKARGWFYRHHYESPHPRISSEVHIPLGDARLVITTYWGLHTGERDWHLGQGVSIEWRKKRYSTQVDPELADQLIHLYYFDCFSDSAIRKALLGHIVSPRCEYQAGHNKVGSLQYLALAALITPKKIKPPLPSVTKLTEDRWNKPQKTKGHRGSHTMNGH
UniProt P69721: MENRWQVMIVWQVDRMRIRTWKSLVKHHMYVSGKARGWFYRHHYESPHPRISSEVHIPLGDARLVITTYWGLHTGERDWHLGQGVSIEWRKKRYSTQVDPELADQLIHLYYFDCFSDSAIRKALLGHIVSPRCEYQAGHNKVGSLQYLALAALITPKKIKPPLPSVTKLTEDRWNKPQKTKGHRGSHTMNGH
UniProt P69722: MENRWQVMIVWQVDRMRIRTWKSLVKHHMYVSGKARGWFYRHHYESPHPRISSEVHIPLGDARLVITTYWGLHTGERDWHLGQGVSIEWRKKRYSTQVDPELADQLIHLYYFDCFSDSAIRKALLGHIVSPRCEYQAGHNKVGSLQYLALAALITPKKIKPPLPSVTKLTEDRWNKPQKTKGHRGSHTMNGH
UniProt P69723: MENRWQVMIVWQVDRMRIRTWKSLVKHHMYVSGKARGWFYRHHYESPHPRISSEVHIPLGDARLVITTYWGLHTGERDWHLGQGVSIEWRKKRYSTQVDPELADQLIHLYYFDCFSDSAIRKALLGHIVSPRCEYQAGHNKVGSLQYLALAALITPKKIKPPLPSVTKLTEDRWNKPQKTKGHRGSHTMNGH
UniProt Q9HC16: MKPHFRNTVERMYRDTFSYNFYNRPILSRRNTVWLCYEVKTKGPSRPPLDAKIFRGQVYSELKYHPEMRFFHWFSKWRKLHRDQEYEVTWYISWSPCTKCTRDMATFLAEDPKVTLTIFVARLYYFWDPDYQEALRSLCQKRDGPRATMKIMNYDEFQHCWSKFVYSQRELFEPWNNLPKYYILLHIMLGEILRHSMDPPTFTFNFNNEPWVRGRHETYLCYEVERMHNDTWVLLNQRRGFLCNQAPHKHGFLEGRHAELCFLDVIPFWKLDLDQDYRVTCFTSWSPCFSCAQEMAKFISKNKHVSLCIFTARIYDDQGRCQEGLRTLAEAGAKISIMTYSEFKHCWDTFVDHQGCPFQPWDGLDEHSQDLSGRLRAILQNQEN

molecular target: Virion infectivity factor (Human immunodeficiency virus type 1 group M subtype B (isolate BH10)) + Virion infectivity factor (Human immunodeficiency virus type 1 group M subtype B (isolate BRU/LAI)) + Virion infectivity factor (Human immunodeficiency virus type 1 group M subtype B (isolate PCV12)) + Virion infectivity factor (Human immunodeficiency virus type 1 group M subtype B (isolate HXB2)) + DNA dC->dU-editing enzyme APOBEC-3G (Homo sapiens) (UniProt P69720+P69721+P69722+P69723+Q9HC16); test: inhibitors of Vif binding to APOBEC3G peptide, primary screen, biochemical, TR-FRET, GST-Vif 1-94, biotin-A3G peptide, dose response retest (AID 1117319); conditions: active compounds read high;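 also: Vif residues 1-94 fused to GST binding biotinylated APOBEC3G peptide 110-148; 0% = full assay without inhibitor and 100% = GST in place of GST-Vif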

SMILES	inhibition
O=C(/C=C/c1ccco1)NCCc1ccccc1	inactive: 0.33%
CC(C)C1Oc2ccccc2N(CC(=O)NCCCN2C(C)CCCC2C)C1=O (stereo not given)	inconclusive: 26%
CCN(CC)c1ccc(NC(=O)c2cnn(CC)c2)cc1	inconclusive: 60.3%
Cc1cc([N+](=O)[O-])c(-c2ccc(/C=N/n3cnnc3)o2)cc1Cl	inconclusive: 45.1%
COc1cc(/C=C(\C#N)c2nc3ccc(C)cc3[nH]2)cc([N+](=O)[O-])c1O	inconclusive: 42.1%
Cc1ccc(SCCOCCN2CCc3ccccc3C2)cc1	inactive: -8.65%
O=C(NC(=C(Cl)Cl)S(=O)(=O)c1ccc(Cl)cc1)c1ccccc1	inconclusive: 37.7%
CCOC(=O)c1ccccc1NC(=O)Cn1c(-c2nonc2N)nc2ccccc21	inconclusive: 34.5%
CCN(CC)S(=O)(=O)c1cccc(C(=O)N[C@H](C(=O)OCC(N)=O)C(C)C)c1	inactive: 19%
O=C(Nc1ccc(Nc2ccccc2)cc1)c1ccco1	inconclusive: 62.4%
Cc1cccc(NC(=O)C2SC(=Nc3c(C)cccc3C)C(C(=O)N3CCOCC3)=C2N)c1 (stereo not given)	inactive: 13.6%
Cc1cc(-c2csc(NC(=O)c3ccc(=O)n(C)n3)n2)c(C)n1CC1CCCO1 (stereo not given)	inconclusive: 49.7%
COCCCNC(=S)NNC(=O)C(O)(c1ccccc1)c1ccccc1	inconclusive: 42%
O=C1OCCC1S(=O)(=O)c1ccc2ccccc2c1 (stereo not given)	inconclusive: 23.9%
C(=Nc1ccc(Nc2ccccc2)cc1)c1ccc2ccccc2c1	inconclusive: 39.6%
Cc1ccc(S(=O)(=O)N2CCN(C(=O)N(C)C)CC2)cc1	inconclusive: 42.9%
O=C(CN1C(=O)CCS(=O)(=O)c2ccccc21)Nc1cccc(Cl)c1	inconclusive: 34.2%
O=C(CCCCn1c(=S)[nH]c2ccsc2c1=O)NCc1ccco1	inconclusive: 33.2%
O=c1oc(-c2cccs2)nc2ccccc12	inconclusive: 37.2%
O=S(=O)(CCNCc1cccs1)c1ccc(Cl)cc1	inconclusive: 46.9%
Nc1ccccc1NC1=CC(=O)CC(c2ccccc2)C1 (stereo not given)	inconclusive: 37.3%
COc1ccc(-c2csc(NC(=O)CCNC(=O)c3ccco3)n2)cc1OC	inconclusive: 55.3%
COc1cc(/C=C2\SC(c3ccc(C)cc3)=NC2=O)ccc1O	inconclusive: 39.7%

Quoted from the listing:
inhibition, `O=C(/C=C/c1ccco1)NCCc1ccccc1` reads inactive: 0.33%
inhibition, `CCN(CC)c1ccc(NC(=O)c2cnn(CC)c2)cc1` reads inconclusive: 60.3%

The list goes on.

SMILES	inhibition
CC(C)N(C(=O)Nc1ccc2nccnc2c1)C(C)C	inconclusive: 44%
COc1ccc(NC(=O)CCCn2c(=O)[nH]c3ccccc3c2=O)cc1	inconclusive: 36.1%
O=C(O)c1cc(-c2ccco2)nc2cc3ccccc3cc12	inconclusive: 59.4%
CC(=O)C1=C(C)NC(SCC(=O)c2ccc(F)cc2)=C(C#N)C1c1ccco1 (stereo not given)	inconclusive: 38.9%
Cc1ccc(C)c(NC(=O)CCC(=O)NNC(=O)c2cccs2)c1	inconclusive: 33.1%
Cc1ccccc1CS(=O)(=O)Cc1ccc(C(=O)NCCCN2CC(C)CC(C)C2)o1 (stereo not given)	inactive: 28%
COc1ccc(/C=N/NC(=O)c2cccc(NC(=O)c3ccc(F)cc3)c2)c(C(=O)O)c1OC	inconclusive: 35.4%
O=C(Cn1c(O)c(/C=C2\C=Nc3ccccc32)sc1=O)N1CCOCC1	inconclusive: 41.4%
O=C(NC(=O)N1CCN(c2ccc([N+](=O)[O-])cn2)CC1)c1ccccc1F	inconclusive: 40.9%
CCc1cc[n+](-c2nc([O-])sc2C=O)cc1	inconclusive: 38.8%
CC(C)c1ccc(NC(=O)Nc2cc3sccc3n2C)cc1	inconclusive: 54.8%
CCCCn1c(CCCNC(=O)c2ccco2)nc2ccccc21	inconclusive: 38.9%
CN(C)c1ccc(C=c2c3ccccc3n3c2c2c([n+]3C)CCCC2)cc1	inactive: 26.6%
COc1ccc(C2C3=C(CC(C)(C)CC3=O)Nc3c2c(=O)[nH]c2nc(C)nn32)cc1 (stereo not given)	inconclusive: 55.3%
Cc1cc(C)cc(OCCCCCNCCO)c1	inconclusive: 33.9%
O=C(O)C(Cc1ccccc1)N1C(=O)/C(=C/c2ccccc2)SC1=S (stereo not given)	inactive: -5.34%
Cc1c(NC(=O)NC2CCCCC2)cccc1[N+](=O)[O-]	inconclusive: 55.9%
CC1=C(C(=O)OC(C)C)C(c2cccc([N+](=O)[O-])c2)n2c(cc(=O)[nH]c2=S)N1 (stereo not given)	inconclusive: 35.5%
N#C/C(C(N)=O)=C1/CCc2ccccc2N1	inactive: -2.65%
CCCOc1ccc(C2C(=O)N(C3CCCCCC3)CC(=O)N2Cc2ccco2)cc1OC (stereo not given)	inconclusive: 66%
CCOc1cc(C2C(C(=O)N3CCCCC3)=C(C)NC3=C2C(=O)CCC3)cc(Br)c1O (stereo not given)	inconclusive: 51.6%
COc1ccc2c(c1)c(=O)oc1cc(OCC(=O)N3CCc4ccccc4C3)ccc12	inconclusive: 33.4%
C=CCC1CCCCC12NC(=O)NC2=O (stereo not given)	inconclusive: 62.9%

2 successive records out of the list so far, quoted:
SMILES	inhibition
O=C(O)c1cc(-c2ccco2)nc2cc3ccccc3cc12	inconclusive: 59.4%
CC(=O)C1=C(C)NC(SCC(=O)c2ccc(F)cc2)=C(C#N)C1c1ccco1 (stereo not given)	inconclusive: 38.9%

The listing continues.

SMILES	inhibition
Cc1ccc2[nH]c(=O)c(CN(CCc3ccccc3)C(c3nnnn3Cc3ccco3)C(C)C)cc2c1 (stereo not given)	inconclusive: 42.5%
Cc1ccc(C)c(NC(=O)C2COc3ccccc3O2)c1 (stereo not given)	inconclusive: 52.9%
COc1ccc(CN2CCN(CCc3ccccc3)C(CCO)C2)cc1Cn1cncn1 (stereo not given)	inconclusive: 64.8%
C=CC(=O)NC(C)(C)CCN1CCOCC1	inactive: 0.07%
CC(=O)N(C1=C(N)C(=O)c2ccccc2C1=O)c1ccccc1	inactive: 4.9%
CCN(CC)CCCNc1nnc(C)c(=O)[nH]1	inconclusive: 37.3%
OCCN1CCN(c2ncnc3c2sc2nc(N4CCOCC4)c4c(c23)CCC4)CC1	inconclusive: 54.1%
O=S(=O)(Nc1nc2ccccc2nc1NCC1CCCO1)c1cc(Cl)ccc1Cl (stereo not given)	inconclusive: 42.8%
O=C(/C=C/c1ccco1)N(Cc1ccccc1)C1CCS(=O)(=O)C1 (stereo not given)	inconclusive: 47.6%
COc1ccc(OC)c(S(=O)(=O)Nc2cc(OC)c(Cl)cc2OC)c1	inconclusive: 50%
COc1ccc(C(=O)O)cc1S(=O)(=O)Nc1ccc(C)cc1	inconclusive: 50.5%
O=C(Nc1ccc(Cl)c(Cl)c1)N1CC=CCC1	inconclusive: 54.2%
CN(C)c1ccc(N=c2sc3ccccc3n2C)cc1	inconclusive: 34.9%
N#Cc1c(/N=C/c2cccs2)sc2c1CCCCC2	inconclusive: 44.6%
COc1cccc(/C=C2\SC(=S)N(c3cccnc3)C2=O)c1OC	inactive: -3.12%
O=C(Cc1ccccc1)N/N=C/c1ccc(OC(=O)/C=C\c2ccco2)cc1	inconclusive: 44.5%
COC(=O)C(CC(=O)c1ccc(Cl)cc1)c1ccc(C(C)C)cc1 (stereo not given)	inactive: 10.5%
O=c1c(/C=N/Nc2ccccc2)c(Sc2nnnn2-c2ccccc2)nc2ccccn12	inconclusive: 10.3%
C/C(=N\O)C(=O)C(CN1CCCCC1)CN1CCCCC1	inconclusive: 33.4%
Cc1nc2ccccc2n1CC(=O)c1ccccc1	inactive: 6.29%
NC(=O)c1ccc(CN2CCC(Cc3ccccc3)CC2)cc1	inconclusive: 41.9%
COc1c(/C=N/Nc2ccc(C(=O)O)cc2)c(CCN(C)C(C)=O)cc2c1OCO2	inconclusive: 58.5%
CSCSC1=C(C#N)C(c2ccc(Cl)cc2)C(C(C)=O)=C(C)N1 (stereo not given)	inconclusive: 60.8%

SMILES	inhibition
COc1ccc(-c2[nH]ncc2CN(C)Cc2c(C)n[nH]c2C)c(OC)c1	inconclusive: 44.7%
N#CC(C(=O)NCc1ccccc1)c1nc2ccccc2nc1N1CCCC1 (stereo not given)	inconclusive: 47.3%
CC(=O)Nc1ccc(OC(=O)c2ccco2)cc1	inconclusive: 48.4%
CCN(C(=O)CSc1cc(C)c2ccc(OC)cc2n1)C1CCS(=O)(=O)C1 (stereo not given)	inconclusive: 49.4%
COc1ccc(-c2nc(N)nc(C)c2Oc2ccccc2Br)c(O)c1	inconclusive: 38.6%
N#C/C(=C\c1ccc(-c2cccc([N+](=O)[O-])c2)o1)C(=O)Nc1nc(-c2cccs2)cs1	inactive: 3.46%
Cc1nc(N2CCN(Cc3ccccc3)CC2)nc2c1C(=O)CC(C)C2 (stereo not given)	inconclusive: 45.1%
O=C(NCC1CCCO1)C12CN(Cc3ccccc3)CC1C(c1cccc([N+](=O)[O-])c1)=NO2 (stereo not given)	inconclusive: 51.1%
NS(=O)(=O)c1cc(C(=O)NC2CCSc3ccccc32)ccc1Cl (stereo not given)	inconclusive: 37.8%
CCc1ccccc1NC(=O)CSc1nc2n[nH]c(C)c2c(=N)n1-c1ccc(OC)cc1	inconclusive: 46.8%
O=C(/C=C/NNC(=O)c1ccccc1)c1ccc([N+](=O)[O-])cc1	inconclusive: 56.5%
COc1ccc(-c2csc3ncnc(Nc4ccc(O)cc4)c23)cc1	inconclusive: 45.5%
CN(C)c1cccc(C(=O)NC2CCCCCC2)c1	inconclusive: 37.6%
Cc1cccc(C)c1NC(=O)COc1ccc2c(C)c(Cc3ccccc3)c(=O)oc2c1C	inconclusive: 57.2%
CC(=O)C1C(=O)C=C(c2ccco2)CC1c1ccccc1 (stereo not given)	inconclusive: 40.8%
Nc1nnnn1/N=C/c1cccc(Oc2ccccc2)c1	inconclusive: 62.6%
CCn1nc(NC(=O)Cc2ccc(OC)cc2)c2cc3cc(C)ccc3nc21	inconclusive: 55.2%
COCCNC(=O)C(C#N)c1nc2ccccc2nc1N1CCCCCC1 (stereo not given)	inconclusive: 44.4%
CCNC(=S)Nc1ccc(N(c2ccccc2)C(C)C)cc1	inconclusive: 73.5%
CC(=O)c1cc(C(=O)Nc2ccc(C(=O)O)cc2)oc1C	inconclusive: 59.5%
COC(=O)c1ccccc1NC(=O)Cn1c(=O)oc2ccc(Cl)cc21	inconclusive: 37.4%
